Results from patent publication US6713410B1, “Method for textile treatment for spandex containing fabrics” (E.I. du Pont de Nemours and Co., priority 1997, dated 2004).
Some compounds share one wording; it may come from a single statement. Some compounds share one range, which may span the group rather than tell each member.

experiment: Perfume ingredient deposition on spandex-containing cloth versus all-cotton cloth after washing (solvent extraction, gas chromatography); details: concentration extracted from 95% cotton/5% spandex cloth relative to all-cotton cloth; washed with powder containing 0.5% perfume, line dried overnight

Question: Which Enhancement does the source give for `CC(=O)c1cc2c(cc1C)C(C)(C)C(C)CC2(C)C` (stereo not drawn) [Tonalid, 1,1,2,4,4,7-hexamethyl-6-acetyl-1,2,3,4-tetrahydronaphthalene] here?
Answer: M (greater than from the all-cotton cloth by a factor of 5 to 20, the result was coded as a medium enhancement (M))

Question: Which Enhancement does the source give for `OCCc1ccccc1` [2-phenylethanol] here?
Answer: L (if less than 5 or not measurable, it was coded(L))

Question: Which Enhancement does the source give for `CC(=O)OC(C)(C)C1CC=C(C)CC1` (stereo not drawn) [terpinyl acetate] here?
Answer: H (If the concentration was greater by 20 or more, it was coded high(H))

Question: Which Enhancement does the source give for `CC(C)CCCC(C)CCO` (stereo not drawn) [tetrahydrogeraniol] here?
Answer: H (If the concentration was greater by 20 or more, it was coded high(H))

Question: With `CC(=O)OC1CC2CC1C1CC=CC21` (stereo not drawn) [jasmacyclene, tricyclodecenyl acetate] as the compound, how does the Enhancement read?
Answer: H (If the concentration was greater by 20 or more, it was coded high(H))

Question: Which Enhancement does the source give for `COc1ccc2ccccc2c1` [yara] here?
Answer: H (If the concentration was greater by 20 or more, it was coded high(H))

Question: With `CC(C)=CCCC(C)CCO` (stereo not drawn) [citronellol] as the compound, how does the Enhancement read?
Answer: H (If the concentration was greater by 20 or more, it was coded high(H))

Question: With `CCOCOC1CCCCCCCCCCC1` [Boisambrene Forte] as the compound, how does the Enhancement read?
Answer: M (greater than from the all-cotton cloth by a factor of 5 to 20, the result was coded as a medium enhancement (M))

Question: For `COC(=O)c1ccccc1O` [methyl salicylate], which Enhancement is on record?
Answer: L (if less than 5 or not measurable, it was coded(L))

Question: Which Enhancement does the source give for `CC(=O)CCc1ccccc1` [benzyl acetone] here?
Answer: M (greater than from the all-cotton cloth by a factor of 5 to 20, the result was coded as a medium enhancement (M))

Question: With `CCC(C)(O)CCCC(C)C` (stereo not drawn) [tetrahydrolinalol] as the compound, how does the Enhancement read?
Answer: H (If the concentration was greater by 20 or more, it was coded high(H))

Question: With `CC(C)CCCC(C)(C)O` [2,6-dimethyl-heptan-2-ol] as the compound, how does the Enhancement read?
Answer: L (if less than 5 or not measurable, it was coded(L))
